The target of this experiment is T1, B-lymphoma Mo-MLV insertion region (BMI1), HA-tagged (UniProt P25916).
T1 sequence: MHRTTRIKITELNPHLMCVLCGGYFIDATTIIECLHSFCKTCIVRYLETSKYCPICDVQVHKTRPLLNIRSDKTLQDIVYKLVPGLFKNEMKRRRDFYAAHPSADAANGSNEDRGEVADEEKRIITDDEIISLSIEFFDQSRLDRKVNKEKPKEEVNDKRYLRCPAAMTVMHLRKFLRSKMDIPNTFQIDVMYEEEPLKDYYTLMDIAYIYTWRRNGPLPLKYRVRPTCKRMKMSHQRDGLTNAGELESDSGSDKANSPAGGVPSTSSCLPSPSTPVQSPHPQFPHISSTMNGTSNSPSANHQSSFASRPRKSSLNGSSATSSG
Kind of experiment: co-IP; NCTC 1469 cells overexpressing His-tagged CBX7 or HA-tagged BMI1 for 24 h; 2.5 mg precleared lysate incubated overnight at 4 °C with 6 μg anti-BMI1 or anti-CBX7; protein G-Sepharose beads; SDS-PAGE and immunoblotting.

Chains of the proteins cited; added tags and fusions are not shown.
UniProt Q8VDS3: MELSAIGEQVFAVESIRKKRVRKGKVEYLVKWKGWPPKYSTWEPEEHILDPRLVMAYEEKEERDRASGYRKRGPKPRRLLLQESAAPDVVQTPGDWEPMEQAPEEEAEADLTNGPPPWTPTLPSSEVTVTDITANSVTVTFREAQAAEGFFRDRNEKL

These are yes or no findings as the source states them, for the method shown. In cells and extracts the contact can be indirect. Some results given as binding are weak or reduced against the parent protein; the word gives no strength. Sequences can lack the tags named with a protein.

Turning to “chromobox 7 (CBX7), His-tagged (from UniProt Q8VDS3 1-158)”, the binding entry is given as “binds”.

The values are drawn from article PMC11094083.
